Results published in patent publication US20220202884A1 (SENECA THERAPEUTICS, INC., priority 2019, published 2022).
“Also recorded” adds a separate entry of the source. At least one compound was matched to its structure with a doubt left.

Key:
[1] = test system: HCT-116 cells (Colorectal cancer cells); assay: SVV mediated killing of drug-pretreated HCT-116 cells; type: cell-based, human; settings: HCT-116 cells pretreated for 24 hours with compound; FIG. 4
Procedure: HCT-116 cells (Colorectal cancer cells) were pretreated for 24 hours in pharmaceutical compounds to disrupt innate antiviral responses to allow increased viral mediated killing.

[2] = test system: triple negative breast cancer cells (BT-549); assay: SVV infection, replication and killing of drug-treated BT-549 cells; type: cell-based; settings: FIG. 2
Excerpt: In certain instances, infection with Seneca Valley Virus can be toxic to triple negative breast cancer cell lines. In these cases, it is necessary to reduce innate antiviral responses through the use of certain approved pharmaceutical compounds (see FIG. 1, FIG. 2 and FIG. 5).

[3] = test system: U2OS cells (osteosarcoma); assay: SVV mediated killing of drug-pretreated U2OS cells; type: cell-based; settings: U2OS cells pretreated for 24 hours with compound; FIG. 3
Procedure: U2OS cells (osteosarcoma) were pretreated for 24 hours in pharmaceutical compounds to disrupt innate antiviral responses to allow increased viral mediated killing.

Row | Compound | Seneca Valley Virus mediated cell killing [1] | susceptibility to virus mediated killing by SVV [2] | Seneca Valley Virus mediated cell killing [3]
1 | Cc1[nH]c2ccccc2c1CCNCc1ccc(/C=C/C(=O)NO)cc1 [Panobinostat] | increase in cell killing was mainly caused by MAC inhibitors; also recorded: increased Seneca Valley Virus mediated cell killing |  | 
2 | N#CC[C@H](C1CCCC1)n1cc(-c2ncnc3[nH]ccc23)cn1 [Ruxolitinib] | mainly caused by MAC inhibitors (Panobinostat or Vorinostat) instead of the JAK inhibitors | modified and favored the susceptibility to virus mediated killing by SVV | augmented SVV mediated cell killing; also recorded: increased Seneca Valley Virus mediated cell killing
